Source: PubChem BioAssay AID1259331 (Drosophila RNAi Screening Center, 2017)
This is an unselected part of about 3,100 reagents. 126 of them (4.1%) were called active. 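Calls are per reagent; zinc was so toxic that few knock-downs lowered ATP further, so most hits raise ATP.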 Raw values are not corrected between plates. A plus sign joins genes that one reagent is predicted to hit. Not stated in the record: the amount of reagent.

Aim: 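Fly transmembrane-protein genes that affect zinc toxicity in cultured cells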 (primary screen)
Cell system: Drosophila S2R+ cells
Knock-down reagent: long dsRNA against Drosophila genes
Time to read-out: 5 days (4 days knock-down, then 1 day zinc)
Challenge: zinc chloride at 15 mM final level for 1 day
Measured: 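Luminescent ATP assay standing in for viability; Z score is the mean over three replicate plates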
Direction: mean Z score: higher = more ATP than other wells, better survival under zinc; ATP luminescence: higher = more ATP, more viable cells
Rule for the call: 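a reagent is called a hit when its Z score is above 1.5 or below -1.5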
Calls: active = hit, ATP up or down; inactive = not a hit

The first 3 records, ahead of the listing:
{"gene":"Tsp68C (Tetraspanin 68C)","DRSC id":"DRSC09295","mean Z score":0.607,"ATP luminescence, replicate 1":72774,"ATP luminescence, replicate 2":79532,"Call":"inactive"}
{"gene":"Tsp68C (Tetraspanin 68C)","DRSC id":"DRSC28942","mean Z score":0.471,"ATP luminescence, replicate 1":68178,"ATP luminescence, replicate 2":69144,"Call":"inactive"}
{"gene":"Psn (Presenilin)","DRSC id":"DRSC11743","mean Z score":0.168,"ATP luminescence, replicate 1":76736,"ATP luminescence, replicate 2":65005,"Call":"inactive"}

The listing, from the start:
{"gene":"Tsp68C (Tetraspanin 68C)","DRSC id":"DRSC09295","mean Z score":0.607,"ATP luminescence, replicate 1":72774,"ATP luminescence, replicate 2":79532,"Call":"inactive"}
{"gene":"Tsp68C (Tetraspanin 68C)","DRSC id":"DRSC28942","mean Z score":0.471,"ATP luminescence, replicate 1":68178,"ATP luminescence, replicate 2":69144,"Call":"inactive"}
{"gene":"Psn (Presenilin)","DRSC id":"DRSC11743","mean Z score":0.168,"ATP luminescence, replicate 1":76736,"ATP luminescence, replicate 2":65005,"Call":"inactive"}
{"gene":"VhaM9.7-b (Vacuolar H[+] ATPase M9.7 subunit b)","DRSC id":"DRSC11841","mean Z score":-0.114,"ATP luminescence, replicate 1":74266,"ATP luminescence, replicate 2":58608,"Call":"inactive"}
{"gene":"Jwa","DRSC id":"DRSC02048","mean Z score":-0.336,"ATP luminescence, replicate 1":48646,"ATP luminescence, replicate 2":54476,"Call":"inactive"}
{"gene":"Jwa","DRSC id":"DRSC26655","mean Z score":0.178,"ATP luminescence, replicate 1":62158,"ATP luminescence, replicate 2":59997,"Call":"inactive"}
{"gene":"Mrp4 (Multidrug resistance protein 4)","DRSC id":"DRSC14931","mean Z score":-0.47,"ATP luminescence, replicate 1":33353,"ATP luminescence, replicate 2":50189,"Call":"inactive"}
{"gene":"Mrp4 (Multidrug resistance protein 4)","DRSC id":"DRSC28151","mean Z score":-1.26,"ATP luminescence, replicate 1":41771,"ATP luminescence, replicate 2":37898,"Call":"inactive"}
{"gene":"CG31904 + CG13796","DRSC id":"DRSC22161","mean Z score":-0.133,"ATP luminescence, replicate 1":45371,"ATP luminescence, replicate 2":45656,"Call":"inactive"}
{"gene":"CG33282","DRSC id":"DRSC00422","mean Z score":-0.444,"ATP luminescence, replicate 1":40896,"ATP luminescence, replicate 2":41051,"Call":"inactive"}
{"gene":"CG33282","DRSC id":"DRSC39731","mean Z score":-0.114,"ATP luminescence, replicate 1":68349,"ATP luminescence, replicate 2":53190,"Call":"inactive"}
{"gene":"CG14621","DRSC id":"DRSC20635","mean Z score":-0.266,"ATP luminescence, replicate 1":37639,"ATP luminescence, replicate 2":41119,"Call":"inactive"}
{"gene":"CG14621","DRSC id":"DRSC27094","mean Z score":0.213,"ATP luminescence, replicate 1":62484,"ATP luminescence, replicate 2":59071,"Call":"inactive"}
{"gene":"Gr8a (Gustatory receptor 8a)","DRSC id":"DRSC18043","mean Z score":-0.0144,"ATP luminescence, replicate 1":68932,"ATP luminescence, replicate 2":62621,"Call":"inactive"}
{"gene":"nrv2 (nervana 2)","DRSC id":"DRSC00948","mean Z score":-0.191,"ATP luminescence, replicate 1":40913,"ATP luminescence, replicate 2":40913,"Call":"inactive"}
{"gene":"nrv2 (nervana 2)","DRSC id":"DRSC03383","mean Z score":0.252,"ATP luminescence, replicate 1":52144,"ATP luminescence, replicate 2":67903,"Call":"inactive"}
{"gene":"CG42542","DRSC id":"DRSC15549","mean Z score":-0.62,"ATP luminescence, replicate 1":42028,"ATP luminescence, replicate 2":35031,"Call":"inactive"}
{"gene":"CG42542","DRSC id":"DRSC26676","mean Z score":-0.13,"ATP luminescence, replicate 1":60517,"ATP luminescence, replicate 2":50003,"Call":"inactive"}
{"gene":"Tsp26A (Tetraspanin 26A)","DRSC id":"DRSC03135","mean Z score":-0.0283,"ATP luminescence, replicate 1":48372,"ATP luminescence, replicate 2":41805,"Call":"inactive"}
{"gene":"CG12490","DRSC id":"DRSC04123","mean Z score":0.413,"ATP luminescence, replicate 1":56225,"ATP luminescence, replicate 2":42474,"Call":"inactive"}
{"gene":"Grik","DRSC id":"DRSC15846","mean Z score":-0.0449,"ATP luminescence, replicate 1":45354,"ATP luminescence, replicate 2":46834,"Call":"inactive"}
{"gene":"Grik","DRSC id":"DRSC15847","mean Z score":-0.0311,"ATP luminescence, replicate 1":34742,"ATP luminescence, replicate 2":59414,"Call":"inactive"}
{"gene":"Grik","DRSC id":"DRSC26067","mean Z score":-0.0593,"ATP luminescence, replicate 1":52144,"ATP luminescence, replicate 2":57936,"Call":"inactive"}
{"gene":"ZnT63C (Zinc transporter 63C)","DRSC id":"DRSC08032","mean Z score":0.463,"ATP luminescence, replicate 1":50549,"ATP luminescence, replicate 2":43862,"Call":"inactive"}
{"gene":"ZnT63C (Zinc transporter 63C)","DRSC id":"DRSC08033","mean Z score":-0.0601,"ATP luminescence, replicate 1":39647,"ATP luminescence, replicate 2":44188,"Call":"inactive"}
{"gene":"ZnT63C (Zinc transporter 63C)","DRSC id":"DRSC23528","mean Z score":-0.303,"ATP luminescence, replicate 1":49555,"ATP luminescence, replicate 2":64027,"Call":"inactive"}
